# Assay results as given in the supplement of paper PMC7858590.
# ± gives the standard deviation of the averaged measurements. Over roughly 3,800 compounds, “cell shape (eccentricity) Z-score vs DMSO control” has its median near 1.1; the lowest 2% begin near -4.7. The list shows a part of the results.
# Tested on: human monocyte-derived macrophages (M0)
# Assay: cell shape (eccentricity) Z-score vs DMSO control; higher = more elongated, M2-like morphology
# Conditions: 20 µM; 24 h; macrophage state: M0 (M-CSF)
row,Compound,cell shape (Z-score)
1,COc1cc(Nc2ncc(F)c(Nc3ccc4c(n3)NC(=O)C(C)(C)O4)n2)cc(OC)c1OC,5.01
2,N[C@@H]1CCCC[C@H]1N.O=C1[O][Pt][O]C1=O,-2.82 ± 1.4
3,c1nc(CCCC2CCNCC2)c[nH]1,-0.166
4,Cc1ccc(Nc2nccc(N(C)c3ccc4c(C)n(C)nc4c3)n2)cc1S(N)(=O)=O,2.61 ± 0.72
5,Cc1[nH]c(/C=C2\C(=O)Nc3ccc(S(=O)(=O)N(C)c4cccc(Cl)c4)cc32)c(C)c1C(=O)N1CCN(C)CC1,19.3
6,C(=NNC1=NCCN1)c1c2ccccc2c(C=NNC2=NCCN2)c2ccccc12,8.02
7,CC1CCC(NC(=O)N(CCCl)[N+][O-])CC1 (centres undefined),2.38
8,C[C@H](CO)N1C[C@H](C)[C@H](CN(C)Cc2ccc(Cl)c(Cl)c2)Oc2ccc(N(C)C)cc2C1=O,3.69
9,O=C(CCc1ccc(O)cc1)CC(CCc1ccc(O)cc1)O[C@@H]1OC[C@@H](O)[C@H](O)[C@H]1O (some centres undefined),-1.8
10,COC(=O)[C@@H]1CC(=O)O[C@H](C)C/C=C/C=C/[C@H](O)[C@H](C)C[C@H](CC=O)[C@H](OC2O[C@H](C)[C@@H](OC3C[C@@](C)(O)[C@@H](OC(=O)CC(C)C)[C@H](C)O3)[C@H](N(C)C)[C@H]2O)[C@H]1OC (some centres undefined),-2.11
11,O=C1C[C@H](c2ccc(O)cc2)Oc2c1c(O)cc(O)c2[C@@H]1C(=O)c2c(O)cc(O)cc2O[C@H]1c1ccc(O)cc1,3.49
12,CC(C)ON([C@@H](C(=O)NO)C(C)C)S(=O)(=O)c1ccc(-c2ccccc2)cc1,-0.0527
13,Cc1nn(-c2ccccc2)c(C)c1C=NN1CCN(Cc2ccccc2)CC1,3.1
14,C[C@@H]1O[C@@H](Oc2ccc(-c3coc4cc(O[C@@H]5O[C@@H](C)[C@H](O)[C@@H](O)[C@H]5O)ccc4c3=O)cc2)[C@H](O)[C@H](O)[C@H]1O,-1.35
15,Cc1c[nH]c2ccccc12,1.98
16,C[C@@H]1O[C@@H](Oc2ccc(C3Oc4cc(O)cc(O)c4C(=O)C3O)cc2O)[C@H](O)[C@H](O)[C@H]1O (some centres undefined),-2.03
17,CC1(C)CC[C@]2(C(=O)O[C@@H]3O[C@H](CO)[C@@H](O)[C@H](O)[C@H]3O)CC[C@]3(C)C(=CCC4[C@@]5(C)CC[C@H](O[C@@H]6O[C@H](C(=O)O)[C@@H](O[C@@H]7O[C@H](CO)[C@@H](O)[C@H](O)[C@H]7O)[C@H](O)[C@H]6O[C@@H]6O[C@H](CO)[C@@H](O)[C@H](O)[C@H]6O)C(C)(C)C5CC[C@]43C)C2C1 (some centres undefined),2.41
18,CC(=O)N1CCN(c2ccc(OCC3COC(Cn4ccnc4)(c4ccc(Cl)cc4Cl)O3)cc2)CC1 (centres undefined),-0.865
19,CC(C)C[C@@H](C(=O)N[C@H](C(=O)OC1CCCC1)c1ccccc1)[C@H](O)C(=O)NO,3.43
20,COc1cc(/C=C/C(=O)N2CCC=CC2=O)cc(OC)c1OCCN(C)CCOc1c(OC)cc(/C=C/C(=O)N2CCC=CC2=O)cc1OC,-1.38
21,NC(=O)N1c2ccccc2CC(=O)c2ccccc21,1.73
22,COc1cc2nccc(Oc3ccc(NC(=O)Nc4cc(C)on4)c(Cl)c3)c2cc1OC,9.02

# Compounds listed so far that contain four or more nitrogen atoms:
row,Compound,cell shape (Z-score)
1,COc1cc(Nc2ncc(F)c(Nc3ccc4c(n3)NC(=O)C(C)(C)O4)n2)cc(OC)c1OC,5.01
4,Cc1ccc(Nc2nccc(N(C)c3ccc4c(C)n(C)nc4c3)n2)cc1S(N)(=O)=O,2.61 ± 0.72
5,Cc1[nH]c(/C=C2\C(=O)Nc3ccc(S(=O)(=O)N(C)c4cccc(Cl)c4)cc32)c(C)c1C(=O)N1CCN(C)CC1,19.3
6,C(=NNC1=NCCN1)c1c2ccccc2c(C=NNC2=NCCN2)c2ccccc12,8.02
13,Cc1nn(-c2ccccc2)c(C)c1C=NN1CCN(Cc2ccccc2)CC1,3.1
18,CC(=O)N1CCN(c2ccc(OCC3COC(Cn4ccnc4)(c4ccc(Cl)cc4Cl)O3)cc2)CC1 (centres undefined),-0.865
22,COc1cc2nccc(Oc3ccc(NC(=O)Nc4cc(C)on4)c(Cl)c3)c2cc1OC,9.02

# (next part)

row,Compound,cell shape (Z-score)
1,CN(C)CCOC(C)(c1ccccc1)c1ccccn1 (centres undefined),4.82
2,COc1cccc(-c2cc(=O)c3ccccc3o2)c1N,1.41
3,CCCC(O)c1ccc(C)cc1CCCCCC(=O)O (centres undefined),0.984
4,O=C(c1ccc(O)cc1)c1c(O)cc(O)c([C@@H]2O[C@H](CO)[C@@H](O)[C@H](O)[C@H]2O)c1O,1.87
5,COc1ccccc1OCC(O)CNC(C)C (centres undefined),0.567
6,CN(C(=O)C(Cl)Cl)c1ccc(OC(=O)c2ccco2)cc1,0.773
7,CCc1cc(C(=N)S)ccn1,2.08
8,CC(C)CC1NC(=O)C(C)NC1=O (centres undefined),-5.83
9,O=c1cc(-c2ccccc2)oc2c(O)c(O)ccc12,2.09
10,COc1ccc(CCC(=O)O)c(O[C@@H]2O[C@H](CO)[C@@H](O)[C@H](O)[C@H]2O)c1,-1.87
11,CCC/C=C/C=C/C1CC(O)C(O)C1C(=O)O (centres undefined),0.135
12,CCCC1OC2CC3C4CCC5=CC(=O)C=CC5(C)C4C(O)CC3(C)C2(C(=O)CO)O1 (centres undefined),-2.27
13,COc1cc(/C=C/C=O)cc(OC)c1O,-0.421
14,O=C(O)[C@@]1(CCCCCCOc2ccc(Cl)cc2)CO1,1.33
15,COc1cc(C2c3c(cc(OC)c(O)c3OC)CC(CO)C2COC2OCC(O)C(O)C2O)cc(OC)c1O (centres undefined),0.924
16,C=C(C)C1CCC2(C(=O)O)CCC3(C)C(CCC4C5(C)C(C=O)C(O)C(C)(C)C5CCC43C)C12 (centres undefined),0.621
17,C/C(=C/C(=O)O)CCC1C(C)CCC2C(C)(C=O)C(O)CCC12C (centres undefined),0.69 ± 0.12
18,CS(=O)(=O)c1ccc(Cn2c3c(c4cc(F)cc(F)c42)CCCC3CC(=O)O)cc1 (centres undefined),0.493
19,COC(=O)Nc1nc2ccc(Sc3ccccc3)cc2[nH]1,-3.02
20,COc1ccc2c(c1OC)C(=O)O[C@H]2[C@H]1c2c(cc3c(c2OC)OCO3)CCN1C,3.82
21,CC(C)C(O)(C(=O)OCc1ccc(O[C@@H]2O[C@H](CO)[C@@H](O)[C@H](O)[C@H]2O)cc1)C(C)O (some centres undefined),2.15 ± 2.6
22,CCc1nc(N)nc(N)c1-c1ccc(Cl)cc1,-0.187
